In the supplement of paper PMC12819154, “High-throughput peptide-centric local stability assay extends protein–ligand identification to membrane proteins, tissues and bacteria” (Nature Structural & Molecular Biology, 2025):
This is one part of the list. Small differences around the control level are noise.

Sequences of proteins named here, by UniProt entry; tags and fusion partners are left off. A change or cut given only in a name is not applied to a line headed by its entry.
UniProt Q8R2Y8: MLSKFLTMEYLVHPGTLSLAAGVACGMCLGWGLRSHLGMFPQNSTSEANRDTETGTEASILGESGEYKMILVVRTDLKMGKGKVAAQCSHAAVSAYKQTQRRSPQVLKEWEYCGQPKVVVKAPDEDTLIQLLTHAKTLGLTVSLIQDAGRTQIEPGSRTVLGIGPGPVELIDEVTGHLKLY
UniProt Q8K010: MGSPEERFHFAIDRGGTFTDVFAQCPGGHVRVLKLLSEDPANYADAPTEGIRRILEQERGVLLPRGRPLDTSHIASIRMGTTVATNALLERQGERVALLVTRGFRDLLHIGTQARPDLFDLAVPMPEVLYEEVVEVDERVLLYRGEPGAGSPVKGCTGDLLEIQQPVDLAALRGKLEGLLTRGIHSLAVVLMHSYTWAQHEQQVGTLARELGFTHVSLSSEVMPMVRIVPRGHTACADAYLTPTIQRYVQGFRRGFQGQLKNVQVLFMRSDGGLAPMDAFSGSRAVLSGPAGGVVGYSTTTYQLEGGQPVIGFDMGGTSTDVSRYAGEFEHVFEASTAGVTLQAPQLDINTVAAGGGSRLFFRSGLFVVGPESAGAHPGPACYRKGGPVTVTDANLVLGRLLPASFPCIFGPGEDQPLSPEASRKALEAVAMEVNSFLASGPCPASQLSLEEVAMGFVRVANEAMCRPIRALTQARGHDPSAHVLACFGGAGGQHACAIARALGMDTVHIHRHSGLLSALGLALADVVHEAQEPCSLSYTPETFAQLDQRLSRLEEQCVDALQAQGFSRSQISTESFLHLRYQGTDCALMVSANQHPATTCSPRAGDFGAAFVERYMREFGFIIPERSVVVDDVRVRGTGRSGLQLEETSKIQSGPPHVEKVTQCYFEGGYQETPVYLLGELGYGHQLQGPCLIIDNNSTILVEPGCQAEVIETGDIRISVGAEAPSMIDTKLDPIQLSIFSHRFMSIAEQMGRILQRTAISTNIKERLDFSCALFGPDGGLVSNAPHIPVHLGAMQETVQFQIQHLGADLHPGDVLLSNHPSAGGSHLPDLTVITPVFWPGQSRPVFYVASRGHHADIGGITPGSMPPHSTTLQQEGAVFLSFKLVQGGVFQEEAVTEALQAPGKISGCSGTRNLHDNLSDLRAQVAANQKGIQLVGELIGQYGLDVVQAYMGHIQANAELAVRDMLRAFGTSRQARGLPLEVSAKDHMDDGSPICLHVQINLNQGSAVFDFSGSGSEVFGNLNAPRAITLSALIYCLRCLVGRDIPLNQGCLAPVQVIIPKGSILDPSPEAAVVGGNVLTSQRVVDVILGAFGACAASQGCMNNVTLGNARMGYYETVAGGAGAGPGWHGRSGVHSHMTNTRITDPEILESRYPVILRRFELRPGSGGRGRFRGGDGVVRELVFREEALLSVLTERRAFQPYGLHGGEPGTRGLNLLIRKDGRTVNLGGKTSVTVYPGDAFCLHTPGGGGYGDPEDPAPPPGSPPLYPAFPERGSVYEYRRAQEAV
UniProt Q8K0C9: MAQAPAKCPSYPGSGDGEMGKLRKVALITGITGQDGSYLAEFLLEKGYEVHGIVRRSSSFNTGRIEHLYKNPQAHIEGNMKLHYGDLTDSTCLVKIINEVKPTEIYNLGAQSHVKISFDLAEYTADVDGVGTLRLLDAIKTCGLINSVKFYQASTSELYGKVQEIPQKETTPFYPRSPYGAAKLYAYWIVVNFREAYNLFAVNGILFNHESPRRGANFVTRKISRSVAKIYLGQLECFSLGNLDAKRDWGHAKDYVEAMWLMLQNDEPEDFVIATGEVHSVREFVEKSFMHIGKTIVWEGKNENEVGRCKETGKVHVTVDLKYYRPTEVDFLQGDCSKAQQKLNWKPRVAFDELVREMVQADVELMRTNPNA
UniProt Q8R1H0: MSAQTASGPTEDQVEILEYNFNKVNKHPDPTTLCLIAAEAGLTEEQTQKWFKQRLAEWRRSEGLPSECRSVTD
UniProt Q8VCM7: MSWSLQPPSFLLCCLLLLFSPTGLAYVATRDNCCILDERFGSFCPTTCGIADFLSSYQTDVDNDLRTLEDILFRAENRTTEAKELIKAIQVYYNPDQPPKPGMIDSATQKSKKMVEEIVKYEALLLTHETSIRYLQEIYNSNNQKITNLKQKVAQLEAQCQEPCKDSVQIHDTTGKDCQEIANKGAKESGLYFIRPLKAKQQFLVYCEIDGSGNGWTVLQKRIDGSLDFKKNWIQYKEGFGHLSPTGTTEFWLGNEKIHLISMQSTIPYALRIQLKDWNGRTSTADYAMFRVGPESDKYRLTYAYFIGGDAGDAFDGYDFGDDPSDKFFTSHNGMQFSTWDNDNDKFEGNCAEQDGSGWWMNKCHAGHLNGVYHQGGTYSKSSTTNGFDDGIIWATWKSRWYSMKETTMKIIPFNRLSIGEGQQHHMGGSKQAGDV
UniProt Q8CIF6: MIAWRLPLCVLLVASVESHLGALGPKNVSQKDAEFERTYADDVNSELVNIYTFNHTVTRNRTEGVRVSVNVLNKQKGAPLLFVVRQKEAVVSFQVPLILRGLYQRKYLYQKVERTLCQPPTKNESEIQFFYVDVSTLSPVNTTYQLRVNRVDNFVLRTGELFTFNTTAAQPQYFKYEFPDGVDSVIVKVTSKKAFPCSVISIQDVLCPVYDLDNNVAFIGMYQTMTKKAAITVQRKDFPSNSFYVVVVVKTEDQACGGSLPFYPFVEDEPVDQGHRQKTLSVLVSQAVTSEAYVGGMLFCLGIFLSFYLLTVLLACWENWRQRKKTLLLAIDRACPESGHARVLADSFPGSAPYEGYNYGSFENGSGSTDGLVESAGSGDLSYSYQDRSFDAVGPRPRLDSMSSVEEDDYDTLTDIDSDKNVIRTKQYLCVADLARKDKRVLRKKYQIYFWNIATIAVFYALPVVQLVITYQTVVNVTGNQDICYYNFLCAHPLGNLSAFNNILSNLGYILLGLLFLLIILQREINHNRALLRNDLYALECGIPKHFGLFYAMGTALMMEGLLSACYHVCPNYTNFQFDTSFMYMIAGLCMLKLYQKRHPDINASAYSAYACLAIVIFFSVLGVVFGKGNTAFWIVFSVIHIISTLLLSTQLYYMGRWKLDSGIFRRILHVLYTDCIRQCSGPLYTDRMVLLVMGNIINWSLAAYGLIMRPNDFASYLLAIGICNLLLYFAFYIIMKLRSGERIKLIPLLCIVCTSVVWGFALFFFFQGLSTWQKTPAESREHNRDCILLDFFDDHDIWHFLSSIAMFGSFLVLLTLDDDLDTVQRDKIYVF
UniProt Q8K4P0: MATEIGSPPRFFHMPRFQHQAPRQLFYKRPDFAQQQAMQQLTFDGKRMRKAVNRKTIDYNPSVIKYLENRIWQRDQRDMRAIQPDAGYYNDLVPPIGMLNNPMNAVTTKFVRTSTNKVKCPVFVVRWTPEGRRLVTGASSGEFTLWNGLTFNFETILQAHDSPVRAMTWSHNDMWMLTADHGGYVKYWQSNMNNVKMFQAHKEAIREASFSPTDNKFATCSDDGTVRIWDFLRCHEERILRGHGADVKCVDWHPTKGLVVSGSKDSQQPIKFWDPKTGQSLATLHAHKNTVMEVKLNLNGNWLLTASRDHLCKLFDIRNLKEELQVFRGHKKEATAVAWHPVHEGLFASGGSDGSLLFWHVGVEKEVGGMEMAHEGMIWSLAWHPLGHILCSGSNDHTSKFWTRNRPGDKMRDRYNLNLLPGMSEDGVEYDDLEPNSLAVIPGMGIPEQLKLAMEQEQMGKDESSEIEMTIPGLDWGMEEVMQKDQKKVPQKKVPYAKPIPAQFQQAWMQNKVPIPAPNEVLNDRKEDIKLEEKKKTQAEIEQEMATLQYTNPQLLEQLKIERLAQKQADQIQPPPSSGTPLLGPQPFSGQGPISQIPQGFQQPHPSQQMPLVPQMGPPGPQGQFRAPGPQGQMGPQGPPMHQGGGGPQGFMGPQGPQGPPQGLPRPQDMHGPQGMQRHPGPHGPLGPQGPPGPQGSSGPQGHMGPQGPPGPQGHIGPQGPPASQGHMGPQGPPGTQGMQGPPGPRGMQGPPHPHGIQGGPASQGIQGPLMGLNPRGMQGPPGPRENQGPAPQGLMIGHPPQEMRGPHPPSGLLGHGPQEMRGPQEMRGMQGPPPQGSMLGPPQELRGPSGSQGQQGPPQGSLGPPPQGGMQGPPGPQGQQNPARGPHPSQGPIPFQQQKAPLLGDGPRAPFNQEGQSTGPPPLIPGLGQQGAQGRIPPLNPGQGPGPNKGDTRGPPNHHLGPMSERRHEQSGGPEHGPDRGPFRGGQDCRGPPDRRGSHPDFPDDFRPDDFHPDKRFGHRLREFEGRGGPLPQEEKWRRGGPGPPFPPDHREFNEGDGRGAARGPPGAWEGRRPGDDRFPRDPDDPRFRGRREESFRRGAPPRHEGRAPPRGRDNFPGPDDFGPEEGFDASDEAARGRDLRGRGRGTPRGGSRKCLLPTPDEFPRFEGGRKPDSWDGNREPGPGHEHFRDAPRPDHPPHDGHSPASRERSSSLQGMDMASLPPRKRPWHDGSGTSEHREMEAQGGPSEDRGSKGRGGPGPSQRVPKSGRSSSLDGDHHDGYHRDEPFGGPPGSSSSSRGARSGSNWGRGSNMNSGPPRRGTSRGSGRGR
UniProt Q8K0V4, whole entry: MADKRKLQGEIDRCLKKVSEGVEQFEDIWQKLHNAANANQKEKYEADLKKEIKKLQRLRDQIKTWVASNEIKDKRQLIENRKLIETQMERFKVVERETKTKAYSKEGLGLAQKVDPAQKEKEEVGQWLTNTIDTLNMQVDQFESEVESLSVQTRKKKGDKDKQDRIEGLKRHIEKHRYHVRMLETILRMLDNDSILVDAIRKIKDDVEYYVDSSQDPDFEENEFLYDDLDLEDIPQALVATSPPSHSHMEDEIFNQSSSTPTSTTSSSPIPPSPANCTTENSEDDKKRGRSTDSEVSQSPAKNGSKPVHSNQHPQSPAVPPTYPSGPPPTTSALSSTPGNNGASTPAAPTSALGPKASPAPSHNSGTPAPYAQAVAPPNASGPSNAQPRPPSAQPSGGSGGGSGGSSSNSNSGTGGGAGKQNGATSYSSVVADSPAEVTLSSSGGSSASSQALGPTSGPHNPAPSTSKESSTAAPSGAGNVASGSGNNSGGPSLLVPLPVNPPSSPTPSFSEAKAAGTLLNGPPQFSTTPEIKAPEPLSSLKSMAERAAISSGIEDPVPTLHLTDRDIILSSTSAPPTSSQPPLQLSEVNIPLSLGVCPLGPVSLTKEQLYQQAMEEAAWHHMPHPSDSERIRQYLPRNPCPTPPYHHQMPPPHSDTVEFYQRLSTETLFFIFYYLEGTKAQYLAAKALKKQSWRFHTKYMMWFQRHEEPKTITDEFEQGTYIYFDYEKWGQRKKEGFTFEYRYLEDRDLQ
UniProt Q8CIF4: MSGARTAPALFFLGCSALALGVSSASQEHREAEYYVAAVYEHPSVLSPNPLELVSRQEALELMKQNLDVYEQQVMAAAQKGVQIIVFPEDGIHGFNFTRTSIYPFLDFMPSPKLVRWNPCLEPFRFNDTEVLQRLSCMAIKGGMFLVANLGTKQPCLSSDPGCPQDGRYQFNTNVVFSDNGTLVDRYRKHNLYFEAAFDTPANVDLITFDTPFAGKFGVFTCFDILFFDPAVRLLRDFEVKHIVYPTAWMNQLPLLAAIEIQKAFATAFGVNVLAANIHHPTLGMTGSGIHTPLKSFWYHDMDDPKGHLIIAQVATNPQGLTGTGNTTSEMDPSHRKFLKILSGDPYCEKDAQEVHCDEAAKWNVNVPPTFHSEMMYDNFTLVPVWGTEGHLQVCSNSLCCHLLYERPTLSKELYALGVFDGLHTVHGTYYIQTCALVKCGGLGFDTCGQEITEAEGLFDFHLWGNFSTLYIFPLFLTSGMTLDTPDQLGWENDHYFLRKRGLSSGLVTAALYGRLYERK
UniProt Q8K1J5: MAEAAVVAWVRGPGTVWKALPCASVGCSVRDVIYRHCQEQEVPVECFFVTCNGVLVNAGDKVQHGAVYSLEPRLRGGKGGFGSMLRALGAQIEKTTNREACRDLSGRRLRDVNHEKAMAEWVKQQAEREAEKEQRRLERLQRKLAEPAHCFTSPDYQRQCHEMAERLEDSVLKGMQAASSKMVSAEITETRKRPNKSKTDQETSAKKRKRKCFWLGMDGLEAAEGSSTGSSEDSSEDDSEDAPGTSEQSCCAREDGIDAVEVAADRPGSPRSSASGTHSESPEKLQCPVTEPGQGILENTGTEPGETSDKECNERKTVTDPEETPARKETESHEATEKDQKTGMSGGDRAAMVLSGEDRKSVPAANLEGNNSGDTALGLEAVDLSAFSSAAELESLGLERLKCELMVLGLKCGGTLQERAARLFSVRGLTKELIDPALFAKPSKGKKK
UniProt Q8R164: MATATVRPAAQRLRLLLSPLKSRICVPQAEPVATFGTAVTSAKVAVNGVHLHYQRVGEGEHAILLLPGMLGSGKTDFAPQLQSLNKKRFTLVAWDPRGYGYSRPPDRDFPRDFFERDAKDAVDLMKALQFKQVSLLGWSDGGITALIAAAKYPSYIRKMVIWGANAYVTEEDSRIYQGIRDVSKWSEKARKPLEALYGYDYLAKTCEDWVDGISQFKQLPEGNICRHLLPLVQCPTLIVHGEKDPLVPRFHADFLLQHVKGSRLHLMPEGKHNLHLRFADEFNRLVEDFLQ

What follows are targets tested with CN[C@@H]1C[C@H]2O[C@@](C)([C@@H]1OC)n1c3ccccc3c3c4c(c5c6ccccc6n2c5c31)C(=O)NC4 [staurosporine] (assay: log2 fold change of pooled soluble protein (PISA), ligand vs vehicle (log2 ratio); higher = more thermally stabilized). Conditions: ligand concentration: 20 uM; assay format: PISA pool 52.9/55.5/58.6 C.
UniProt Q8QZY6 was tested, and the “log2 fold change of pooled soluble protein” value (“log2 fold change” for short) was 0.277.
In the case of UniProt Q8K201, the “log2 fold change” value is reported as -0.101.
UniProt Q8CIE0 was tested, and the “log2 fold change” value was -0.0255.
For UniProt Q8R3B7, the “log2 fold change” value was 0.0966.
For UniProt Q8R2Y8, the “log2 fold change” value was 0.0175.
In the case of UniProt Q8CH18, the “log2 fold change” value is reported as -0.0377.
UniProt Q8R104 was tested, and the “log2 fold change” value was -0.0116.
With UniProt Q8R149 the “log2 fold change” value was -0.087.
UniProt Q8K010 was tested, and the “log2 fold change” value was -0.0557.
With UniProt Q8K2B3 the “log2 fold change” value was 0.024.
For UniProt Q8K0C9, the “log2 fold change” value was -0.179.
In the case of UniProt Q8K3W3, the “log2 fold change” value is reported as 0.114.
UniProt Q8CH40 was tested, and the “log2 fold change” value was -0.171.
UniProt Q8R143 was tested, and the “log2 fold change” value was -0.13.
With UniProt Q8R1H0 the “log2 fold change” value was 0.155.
UniProt Q8CJF7 was tested, and the “log2 fold change” value was 0.145.
In the case of UniProt Q8QZT1, the “log2 fold change” value is reported as -0.0697.
In the case of UniProt Q8K1H7, the “log2 fold change” value is reported as 0.189.
With UniProt Q8VCM7 the “log2 fold change” value was -0.125.
For UniProt Q8K3J1, the “log2 fold change” value was -0.141.
With UniProt Q8CIE6 the “log2 fold change” value was -0.00198.
With UniProt Q8CIF6 the “log2 fold change” value was -0.115.
In the case of UniProt Q8R519, the “log2 fold change” value is reported as 0.133.
With UniProt Q8K4P0 the “log2 fold change” value was 0.0227.
With UniProt Q8K0V4 the “log2 fold change” value was 0.124.
In the case of UniProt Q8VCH8, the “log2 fold change” value is reported as 0.403.
With UniProt Q8CJF9 the “log2 fold change” value was 0.2.
In the case of UniProt Q8CIF4, the “log2 fold change” value is reported as 0.00298.
With UniProt Q8R5H1 the “log2 fold change” value was -0.00435.
For UniProt Q8K1J5, the “log2 fold change” value was -0.00258.
With UniProt Q8R164 the “log2 fold change” value was 0.063.
UniProt Q8CIZ8 was tested, and the “log2 fold change” value was 0.00083.
UniProt Q8N7N5 was tested, and the “log2 fold change” value was 0.0161.
In the case of UniProt Q8K0U4, the “log2 fold change” value is reported as -0.37.
For UniProt Q8K2Q7, the “log2 fold change” value was -0.0298.
In the case of UniProt Q8R180, the “log2 fold change” value is reported as 0.341.
UniProt Q8R4V5 was tested, and the “log2 fold change” value was 0.103.
